Laboratory results from patent publication US20200277332A1.
These are yes or no findings as the source states them, for the method shown. Some binding calls cover weakened binding; strength is not graded here.

Protein sequences, listed by entry. Tags and fused reporters are not part of them. Residues count along the entry.
UniProt P35968, residues 20-764: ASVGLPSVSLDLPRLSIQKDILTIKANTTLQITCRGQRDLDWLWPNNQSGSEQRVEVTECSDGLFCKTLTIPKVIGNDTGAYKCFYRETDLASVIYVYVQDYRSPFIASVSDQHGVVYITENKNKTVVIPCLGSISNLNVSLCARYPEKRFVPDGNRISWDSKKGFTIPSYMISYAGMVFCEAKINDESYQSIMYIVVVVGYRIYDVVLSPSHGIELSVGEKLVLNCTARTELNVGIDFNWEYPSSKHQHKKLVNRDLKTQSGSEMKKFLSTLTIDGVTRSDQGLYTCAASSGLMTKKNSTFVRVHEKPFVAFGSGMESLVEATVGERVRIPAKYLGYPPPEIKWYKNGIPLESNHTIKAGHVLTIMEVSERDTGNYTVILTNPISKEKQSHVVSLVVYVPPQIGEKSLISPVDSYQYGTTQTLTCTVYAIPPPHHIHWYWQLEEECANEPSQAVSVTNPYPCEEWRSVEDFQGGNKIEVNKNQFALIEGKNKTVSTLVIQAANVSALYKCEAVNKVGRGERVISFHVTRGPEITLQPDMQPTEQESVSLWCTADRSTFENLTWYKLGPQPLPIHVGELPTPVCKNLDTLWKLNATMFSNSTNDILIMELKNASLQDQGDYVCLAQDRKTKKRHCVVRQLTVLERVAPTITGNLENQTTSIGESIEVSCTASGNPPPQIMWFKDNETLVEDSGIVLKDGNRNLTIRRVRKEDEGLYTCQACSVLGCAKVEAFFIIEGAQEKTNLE

Key:
VEGF receptor (VEGFR2) [1] = target: VEGF receptor (VEGFR2) (UniProt P35968); assay: binding and competition with VEGF; method not described (FIGS. 11 and 13)
VEGF receptor (VEGFR2) [2] = target: VEGF receptor (VEGFR2) (UniProt P35968); assay: binding and competition with VEGF; method not described (FIGS. 12 and 14)

Row | Binder | binding (VEGF receptor (VEGFR2) [1]) | binding (VEGF receptor (VEGFR2) [2])
1 | NKNFGYDLYR [peptide having an amino acid sequence of SEQ ID NO: 1] | binds | 
2 | IHGTYKELL [peptide having an amino acid sequence of SEQ ID NO: 2] |  | binds
